At least one read-out could not be matched to a standard name with certainty.
Assays:
[1] = target: T1, recombinant human MT-SP1 (Homo sapiens, UniProt Q9Y5Y6); experiment: kcat/KM determination with MT-SP1; format: biochemical; conditions: fold higher, FIG. 12
T1 construct: purchased R&D Systems 3946-SEB
T1 sequence (Q9Y5Y6 615-855 limits assumed): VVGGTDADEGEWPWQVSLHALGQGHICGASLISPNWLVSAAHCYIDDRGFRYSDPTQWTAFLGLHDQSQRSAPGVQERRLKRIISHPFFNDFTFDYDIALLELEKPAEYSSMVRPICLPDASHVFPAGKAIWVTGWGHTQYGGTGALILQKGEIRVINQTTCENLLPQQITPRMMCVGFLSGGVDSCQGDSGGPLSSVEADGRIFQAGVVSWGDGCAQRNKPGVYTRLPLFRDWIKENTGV

[2] = target: T2, Recombinant human uPA (Homo sapiens, UniProt P00749); experiment: kcat/KM determination with uPA; format: biochemical; conditions: fold higher, FIG. 12
T2 construct: purchased R&D Systems 1310-SE

IQ Probe: small QZ probe, internally quenched (IQ) linear polypeptide containing a S01 substrate (SEQ ID NO:17)
kcat/KM of the S01 substrate, small probe (IQ Probe) compared to large probe (C225-S01) [1]: 3.5 ×
kcat/KM of the S01 substrate, small probe (IQ Probe) compared to large probe (C225-S01) [2]: 4.6 ×

Source: patent US20240384323A1, “METHOD FOR DETERMINING PROTEASE ACTIVITY IN A BIOLOGICAL SAMPLE” (CytomX Therapeutics, Inc., priority 2021, published 2024)
